Laboratory results: the supplement of paper PMC9744312
Counter-ions that a name gives are not always drawn. This is one part of the list. Single values of this set are uncertain.

tested on: Peyronie's disease tunica albuginea primary fibroblasts; experiment: cell viability (DRAQ5 nuclear stain) relative to TGF-beta1-only control; higher = more viable cells; details: 10 µM; TGF-beta1 10 ng/mL; 72 h

SMILES | cell viability [%]
COc1ccc(CC2c3cc(OC)c(OC)cc3CC[N+]2(C)CCC(=O)OCCCCCOC(=O)CC[N+]2(C)CCc3cc(OC)c(OC)cc3C2Cc2ccc(OC)c(OC)c2)cc1OC (stereo not given) [Atracurium Besylate] | 80.9
O=c1ccc2ccccc2o1 [Coumarin] | 96.2
CCOc1ccc(C[C@H]2NC(=O)CCSSC[C@@H](C(=O)N3CCC[C@H]3C(=O)N[C@@H](CCCN)C(=O)NCC(N)=O)NC(=O)[C@H](CC(N)=O)NC(=O)[C@H]([C@@H](C)O)NC(=O)[C@H]([C@@H](C)CC)NC2=O)cc1 [Atosiban Acetate] | 96.1
CN(C)CCCN1c2ccccc2Sc2ccc(Cl)cc21 [Chlorpromazine HCl] | 86.6
CCOc1ccccc1OC(c1ccccc1)C1CNCCO1 (stereo not given) [Reboxetine mesylate] | 93.4
O=c1[nH]cnc2c1ncn2[C@@H]1O[C@H](CO)[C@@H](O)[C@H]1O [Inosine] | 87.4
COc1cc([C@@H]2c3cc4c(cc3[C@@H](O[C@@H]3O[C@@H]5CO[C@@H](c6cccs6)O[C@H]5[C@H](O)[C@H]3O)[C@H]3COC(=O)[C@H]23)OCO4)cc(OC)c1O [Teniposide] | 73.6
Nc1ccc(S(=O)(=O)Nc2ccccn2)cc1 [Sulfapyridine] | 92.1
Cc1[nH]c2ccccc2c1CCNCc1ccc(/C=C/C(=O)NO)cc1 [Panobinostat (LBH589)] | 50.8
COc1ccnc(C[S+]([O-])c2nc3cc(OC(F)F)ccc3[nH]2)c1OC (stereo not given) [Pantoprazole] | 92.7
COc1ccnc(C[S+]([O-])c2nc3cc(OC(F)F)ccc3[nH]2)c1OC (stereo not given) [Pantoprazole sodium] | 91.3
Nc1ccn([C@@H]2O[C@H](CO)[C@@H](O)[C@@H]2O)c(=O)n1 [Cytarabine hydrochloride] | 64.6
Nc1ccn([C@@H]2O[C@H](CO)[C@@H](O)[C@@H]2O)c(=O)n1 [Cytarabine] | 70.7
O=c1[nH]c(=O)c2ccccc2o1 [Carsalam] | 85.3
CN(C)C/C=C/C(=O)Nc1cc2c(Nc3ccc(F)c(Cl)c3)ncnc2cc1O[C@H]1CCOC1 [Afatinib (BIBW2992) Dimaleate] | 50.3
CN(C)C/C=C/C(=O)Nc1cc2c(Nc3ccc(F)c(Cl)c3)ncnc2cc1O[C@H]1CCOC1 [Afatinib (BIBW2992)] | 79.8
CC(C)(O)c1ccccc1CC[C@@H](SCC1(CC(=O)O)CC1)c1cccc(/C=C/c2ccc3ccc(Cl)cc3n2)c1 [Montelukast Sodium] | 85.9
O=C1NC(=O)C(c2ccccc2)(c2ccccc2)N1 [Phenytoin] | 96.7
CCN[C@@H]1C[C@H](N)[C@@H](O[C@H]2OC(CN)=CC[C@H]2N)[C@H](O)[C@H]1O[C@H]1OC[C@](C)(O)[C@H](NC)[C@H]1O [Netilmicin Sulfate] | 101
C#CCC(Cc1cnc2nc(N)nc(N)c2n1)c1ccc(C(=O)N[C@@H](CCC(=O)O)C(=O)O)cc1 (stereo not given in full) [Pralatrexate] | 87.8
O=C(C[S+]([O-])Cc1ccco1)NC/C=C\COc1cc(CN2CCCCC2)ccn1 (stereo not given) [Lafutidine] | 91.4
COc1c(N2CCNC(C)C2)c(F)cc2c(=O)c(C(=O)O)cn(C3CC3)c12 (stereo not given) [Gatifloxacin] | 82.4

SMILES | cell viability [%]
O=C(c1ccccc1)c1ccc2n1CCC2C(=O)O (stereo not given) [Ketorolac] | 102
CN(C)CC(c1ccc(O)cc1)C1(O)CCCCC1 (stereo not given) [Desvenlafaxine] | 92
CN(C)CC(c1ccc(O)cc1)C1(O)CCCCC1 (stereo not given) [Desvenlafaxine Succinate] | 96.7
NC(=O)[C@@H]1CCCN1C(=O)[C@H](Cc1c[nH]cn1)NC(=O)[C@@H]1CCC(=O)N1 [Protirelin] | 84.4
CO/N=C(\C(=O)N[C@@H]1C(=O)N2C(C(=O)OC(C)OC(C)=O)=C(COC(N)=O)CS[C@H]12)c1ccco1 (stereo not given in full) [Cefuroxime axetil] | 85.9
CCc1c(Cl)c(O)c(Cl)c(O)c1C(=O)O[C@H]1[C@H](O)[C@H](OC)[C@H](OC/C2=C\C=C\C[C@H](O)/C(C)=C/[C@H](CC)[C@@H](O[C@@H]3OC(C)(C)[C@@H](OC(=O)C(C)C)[C@H](O)[C@@H]3O)/C(C)=C/C(C)=C/C[C@@H]([C@@H](C)O)OC2=O)O[C@@H]1C [Fidaxomicin] | 81.1
COc1ccccc1OCC(O)COC(N)=O (stereo not given) [Methocarbamol] | 94.5
COC(=O)Nc1nc2cc([S+]([O-])c3ccccc3)ccc2[nH]1 (stereo not given) [Oxfendazole] | 78.9
CCN(CC)CCOCCOC(=O)C(CC)(CC)c1ccccc1 [Oxeladin Citrate] | 87.3
CCCOc1ccc(C(=O)OCCN(CC)CC)cc1N [Proparacaine HCl] | 83.9
CC(C)C[C@H](NC(=O)CNC(=O)c1cc(Cl)ccc1Cl)B1OC(=O)C(CC(=O)O)(CC(=O)O)O1 [Ixazomib Citrate (MLN9708)] | 33.1
CC[C@@H](CO)NCCN[C@@H](CC)CO [Ethambutol 2HCl] | 92.9
C[C@]1(Cn2ccnn2)[C@H](C(=O)O)N2C(=O)C[C@H]2S1(=O)=O [Tazobactam] | 88.4
C[C@@H]1COC(Nc2ccc3ncnc(Nc4ccc(OCc5nccs5)c(Cl)c4)c3c2)=N1 [Varlitinib] | 69.9
CC(=O)OCC(=O)[C@H]1CC[C@H]2[C@@H]3CCC4=CC(=O)CC[C@]4(C)[C@H]3CC[C@]12C [Deoxycorticosterone acetate] | 83.8
CC1(C)[C@@H](OC(=O)CCC(=O)O)CC[C@]2(C)[C@H]3C(=O)C=C4[C@@H]5C[C@@](C)(C(=O)O)CC[C@]5(C)CC[C@@]4(C)[C@]3(C)CC[C@@H]12 [Carbenoxolone Sodium] | 88.6
CC(CN(C)C)CN1c2ccccc2Sc2ccccc21 (stereo not given) [Alimemazine Tartrate] | 92.8
C#C[C@]1(O)CC[C@H]2[C@@H]3CCC4=CC(=O)CC[C@@H]4[C@H]3CC[C@@]21CC [Levonorgestrel] | 109
N=C(N)NCCN1CCCCCCC1 [Guanethidine Sulfate] | 95.6
N=C(N)NCCN1CCCCCCC1 [Guanethidine Monosulfate] | 97.1
C=CC(=O)Nc1cccc(Oc2nc(Nc3ccc(N4CCN(C)CC4)cc3)nc3ccsc23)c1 | 64.4
C[C@H](NC(=O)C(=O)Nc1ccccc1C(C)(C)C)C(=O)N[C@@H](CC(=O)O)C(=O)COc1c(F)c(F)cc(F)c1F [Emricasan] | 94

SMILES | cell viability [%]
CC(C(=O)O)c1ccc(C(=O)c2ccccc2)s1 (stereo not given) [Tiaprofenic acid] | 105
O=C1CCCC(=O)C1C(=O)c1ccc(C(F)(F)F)cc1[N+](=O)[O-] [Nitisinone] | 98.8
CC(=O)N(CC(O)CN(C(C)=O)c1c(I)c(C(=O)NCC(O)CO)c(I)c(C(=O)NCC(O)CO)c1I)c1c(I)c(C(=O)NCC(O)CO)c(I)c(C(=O)NCC(O)CO)c1I (stereo not given) [Iodixanol] | 75.6
CC[C@H](C)C[C@H](C)CCCCCCCCC(=O)N[C@H]1C[C@@H](O)[C@@H](NCCN)NC(=O)[C@@H]2[C@@H](O)CCN2C(=O)[C@H]([C@H](O)CCN)NC(=O)[C@H]([C@H](O)[C@@H](O)c2ccc(O)cc2)NC(=O)[C@@H]2C[C@@H](O)CN2C(=O)[C@H]([C@@H](C)O)NC1=O [Caspofungin Acetate] | 99
CN(C)Cc1ccc(S(=O)(=O)n2ccc(/C=C/C(=O)NO)c2)cc1 [Resminostat] | 60.8
CN(C)CC/C=C1/c2ccccc2COc2ccc(CC(=O)O)cc21 [Olopatadine HCl] | 91.1
Cc1cc(-c2ccc(/N=N/c3ccc4c(S(=O)(=O)O)cc(S(=O)(=O)O)c(N)c4c3O)c(C)c2)ccc1/N=N/c1ccc2c(S(=O)(=O)O)cc(S(=O)(=O)O)c(N)c2c1O [Evans Blue] | 93.5
CC(O)c1ccc(S(=O)(=O)NC(=O)NC2CCCCC2)cc1 (stereo not given) [Hydroxyhexamide] | 99
CCCCCCCCCCCC[N+](C)(C)CCOc1ccccc1 [Domiphen Bromide] | 33.6
Cc1ccc(-n2nc(C(C)(C)C)cc2NC(=O)Nc2ccc(OCCN3CCOCC3)c3ccccc23)cc1 [Doramapimod (BIRB 796)] | 116
CCC(=O)OCC(=O)[C@@]1(OC(=O)CC)[C@@H](C)C[C@H]2[C@@H]3CCC4=CC(=O)C=C[C@]4(C)[C@@]3(Cl)[C@@H](O)C[C@@]21C [Beclomethasone dipropionate] | 83.1
O=C(/C=C/C=C/c1ccc2c(c1)OCO2)N1CCCCC1 [Piperine] | 94.4
CCN(CC)Cc1cc(Nc2ccnc3cc(Cl)ccc23)ccc1O [Amodiaquine dihydrochloride dihydrate] | 84.2
CCN(CC)Cc1cc(Nc2ccnc3cc(Cl)ccc23)ccc1O [Amodiaquine hydrochloride] | 80.9
O=C1/C(=C2\Nc3ccc(S(=O)(=O)O)cc3C2=O)Nc2ccc(S(=O)(=O)O)cc21 [Indigo carmine] | 81.1
COc1ccccc1N1CCN(CCCNc2cc(=O)n(C)c(=O)n2C)CC1 [Urapidil HCl] | 67.8
COc1nc(N)nc2c1ncn2[C@@H]1O[C@H](CO)[C@@H](O)[C@@H]1O [Nelarabine] | 99.2
O=C1NC(=O)[C@@H](c2cn3c4c(cccc24)CCC3)[C@@H]1c1c[nH]c2ccccc12 [Tivantinib (ARQ 197)] | 62.7
CCc1cnn2c(NCc3ccc[n+]([O-])c3)cc(N3CCCC[C@H]3CCO)nc12 | 55.7
CC(C)NCC(O)c1cc(O)cc(O)c1 (stereo not given) [Metaproterenol Sulfate] | 96.3
C[n+]1ccccc1/C=N/O [Pralidoxime chloride] | 98.3

Three records picked at random from the list so far:
SMILES | cell viability [%]
CCC(=O)OCC(=O)[C@@]1(OC(=O)CC)[C@@H](C)C[C@H]2[C@@H]3CCC4=CC(=O)C=C[C@]4(C)[C@@]3(Cl)[C@@H](O)C[C@@]21C [Beclomethasone dipropionate] | 83.1
CCN(CC)Cc1cc(Nc2ccnc3cc(Cl)ccc23)ccc1O [Amodiaquine hydrochloride] | 80.9
CCCCCCCCCCCC[N+](C)(C)CCOc1ccccc1 [Domiphen Bromide] | 33.6

As entered above.
O=C(/C=C/C=C/c1ccc2c(c1)OCO2)N1CCCCC1 [Piperine] | cell viability [%]: 94.4
CCC(=O)OCC(=O)[C@@]1(OC(=O)CC)[C@@H](C)C[C@H]2[C@@H]3CCC4=CC(=O)C=C[C@]4(C)[C@@]3(Cl)[C@@H](O)C[C@@]21C [Beclomethasone dipropionate] | cell viability [%]: 83.1
